Record: PubChem BioAssay AID504791 (Drosophila RNAi Screening Center, 2011)
Screen: 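Genes of the fly required for silencing by miRNA, siRNA or endo-siRNA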 (primary screen). Cells: Drosophila S2-derived reporter cells. Reagents: long dsRNA against Drosophila genes, about 150-250 ng dsRNA per well (siRNA assay); about 80-120 ng (miRNA assay). Time to read-out: about 5 days (siRNA assay); about 4 days (miRNA assay). Challenge: copper sulfate induction of reporters: 25 µM (siRNA assay); 200 mM stated (miRNA assay), 1-2 days before reading. Measurement: 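Per-well ratio of Renilla over firefly light, expressed relative to that plate's average ratio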. Scale: siRNA reporter hit score: higher = 3 marks a strong hit with raised ratio; -3 a strong hit with lowered ratio. Call rule: 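First-pass picks had plate-scaled ratios over 1.5 for the siRNA assay, over 1.6 for the miRNA assay, or under 0.6; two distinct dsRNAs had to score alike on retest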.
The screen tested about 23,000 reagents; this is an unselected part of those that have a named target and a result. In the full data, 199 (0.86%) are marked active. 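Plate-scaled ratios behind the calls are not deposited; printed light signals are raw; many rows marked increased or decreased are still called inactive.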 The numbers tell different reagents against one gene apart. Names joined by + are all predicted targets of the reagent.

| Target gene | dsRNA no. | siRNA reporter hit score | stable siRNA reporter change | miRNA reporter change | stable assay Renilla, run 1 (luminescence) | stable assay firefly, run 1 (luminescence) | outcome |
| --- | --- | --- | --- | --- | --- | --- | --- |
| Idh3g | 1 | – | – | – | 6918 | 3.67e5 | inactive |
| CG13390 | 1 | – | – | – | 7391 | 3.72e5 | inactive |
| CG16711 | 1 | – | – | – | 5772 | 3.85e5 | inactive |
| trx (trithorax) | 1 | – | – | – | 6907 | 4.45e5 | inactive |
| DopEcR (Dopamine/Ecdysteroid receptor) | 1 | – | – | – | 8735 | 4.23e5 | inactive |
| Ccn | 1 | – | – | – | 5551 | 3.88e5 | inactive |
| Ccn | 2 | – | – | – | 4938 | 3.81e5 | inactive |
| Ccn | 3 | – | – | – | 8620 | 2.49e5 | inactive |
| Ccn | 4 | – | – | – | 8003 | 6.02e5 | inactive |
| CG13010 | 1 | – | – | – | 4547 | 3.70e5 | inactive |
| CG4646 | 1 | – | reporter ratio raised past the hit cutoff | reporter ratio raised past the hit cutoff | 7439 | 2.68e5 | inactive |
| CG31643 | 1 | – | – | – | 4599 | 4.02e5 | inactive |
| CG31917 + Tfb5 | 1 | – | – | – | 7698 | 4.84e5 | inactive |
| CG31917 + Tfb5 | 2 | – | – | – | 9860 | 6.24e5 | inactive |
| ix (intersex) | 1 | – | – | – | 5087 | 2.62e5 | inactive |
| CG2065 | 1 | – | – | – | 5672 | 3.31e5 | inactive |
| CG2065 | 2 | – | – | – | 8651 | 6.74e5 | inactive |
| Rad9 | 1 | – | – | – | 7898 | 2.89e5 | inactive |
| Efa6 (Exchange factor for Arf 6) | 1 | – | – | – | 4007 | 3.35e5 | inactive |
| Efa6 (Exchange factor for Arf 6) | 2 | – | – | – | 4547 | 3.37e5 | inactive |
| Efa6 (Exchange factor for Arf 6) | 3 | – | – | – | 6287 | 3.75e5 | inactive |
| CG5412 | 1 | – | – | – | 7929 | 3.02e5 | inactive |
| Blm (Bloom syndrome helicase) | 1 | – | – | – | 11938 | 4.45e5 | inactive |
| Dup99B (Ductus ejaculatorius peptide 99B) | 1 | – | – | – | 4727 | 4.61e5 | inactive |
| gzl (godzilla E3 ubiquitin protein ligase) | 1 | – | reporter ratio lowered past the hit cutoff | – | 3796 | 3.37e5 | inactive |
| CG31093 | 1 | – | – | – | 6355 | 3.17e5 | inactive |
| CG9121 | 1 | – | – | – | 6543 | 3.21e5 | inactive |
| CG6340 | 1 | – | – | – | 5627 | 4.07e5 | inactive |
| CG16739 | 1 | – | – | – | 6482 | 3.78e5 | inactive |
| CG7227 | 1 | – | – | – | 1.76e5 | 1.15e5 | inactive |
| VhaM9.7-a (Vacuolar H[+] ATPase M9.7 subunit a) | 1 | – | – | – | 6418 | 4.04e5 | inactive |
| CG4520 | 1 | – | – | – | 6539 | 4.20e5 | inactive |
| CG11425 | 1 | – | – | – | 6998 | 4.34e5 | inactive |
| CG31219 | 1 | – | – | – | 8330 | 3.32e5 | inactive |
| Gr43a (Gustatory receptor 43a) | 1 | – | – | – | 6231 | 3.97e5 | inactive |
| CG15629 | 1 | – | – | – | 7782 | 4.41e5 | inactive |
| CG13155 | 1 | – | – | – | 5343 | 2.86e5 | inactive |
| CG9393 | 1 | – | – | – | 9040 | 5.12e5 | inactive |
| CG34174 | 1 | – | – | – | 3963 | 3.72e5 | inactive |
| CG5708 | 1 | – | – | – | 7538 | 3.59e5 | inactive |
| ZIPIC (Zinc-finger protein interacting with CP190) | 1 | – | – | – | 7370 | 3.45e5 | inactive |
| CG17298 | 1 | – | – | – | 7295 | 4.53e5 | inactive |
| LanB1 | 1 | – | – | – | 13984 | 4.89e5 | inactive |
| aos (argos) | 1 | – | – | – | 8651 | 4.61e5 | inactive |
| CG43996 | 1 | – | – | – | 3643 | 2.83e5 | inactive |
| CG43996 | 2 | – | – | – | 3791 | 2.55e5 | inactive |
| nur (nemuri) | 1 | – | – | – | 4463 | 3.86e5 | inactive |
| Ntf-2 (Nuclear transport factor-2) | 1 | – | – | – | 9151 | 3.40e5 | inactive |
| Pdk (Pyruvate dehydrogenase kinase) | 1 | – | – | – | 7730 | 4.70e5 | inactive |
| Nmdar1 (NMDA receptor 1) | 1 | – | – | – | 5539 | 3.96e5 | inactive |
| Nmdar1 (NMDA receptor 1) | 2 | – | – | – | 7171 | 4.24e5 | inactive |
| CG6739 | 1 | – | – | – | 7142 | 4.30e5 | inactive |
| fd3F + CG42499 (retired record) | 1 | – | – | – | 6674 | 4.66e5 | inactive |
| fd3F + CG42499 (retired record) | 2 | – | – | – | 6643 | 4.71e5 | inactive |
| CG1428 | 1 | – | – | – | 6666 | 3.84e5 | inactive |
| CG4455 | 1 | – | – | – | 2.43e5 | 1.31e6 | inactive |
| CG4455 | 2 | – | – | – | 8671 | 4.10e5 | inactive |
| D1 (D1 chromosomal protein) | 1 | – | – | – | 8302 | 5.48e5 | inactive |
| stwl (stonewall) | 1 | – | – | – | 6896 | 2.52e5 | inactive |
| CG33191 + Pif1B | 1 | – | – | – | 5568 | 3.47e5 | inactive |
| L (Lobe) | 1 | – | – | – | 5574 | 3.98e5 | inactive |
| L (Lobe) | 2 | – | – | – | 6591 | 2.98e5 | inactive |
| CG8079 | 1 | – | – | – | 10097 | 5.28e5 | inactive |
| CG8079 | 2 | – | – | – | 5024 | 2.57e5 | inactive |

Quoted from the listing (9 entries):
| Target gene | dsRNA no. | siRNA reporter hit score | stable siRNA reporter change | miRNA reporter change | stable assay Renilla, run 1 (luminescence) | stable assay firefly, run 1 (luminescence) | outcome |
| --- | --- | --- | --- | --- | --- | --- | --- |
| CG43996 | 2 | – | – | – | 3791 | 2.55e5 | inactive |
| nur (nemuri) | 1 | – | – | – | 4463 | 3.86e5 | inactive |
| Ntf-2 (Nuclear transport factor-2) | 1 | – | – | – | 9151 | 3.40e5 | inactive |
| Pdk (Pyruvate dehydrogenase kinase) | 1 | – | – | – | 7730 | 4.70e5 | inactive |
| Nmdar1 (NMDA receptor 1) | 1 | – | – | – | 5539 | 3.96e5 | inactive |
| Nmdar1 (NMDA receptor 1) | 2 | – | – | – | 7171 | 4.24e5 | inactive |
| CG6739 | 1 | – | – | – | 7142 | 4.30e5 | inactive |
| fd3F + CG42499 (retired record) | 1 | – | – | – | 6674 | 4.66e5 | inactive |
| fd3F + CG42499 (retired record) | 2 | – | – | – | 6643 | 4.71e5 | inactive |

Additional results follow.
| Target gene | dsRNA no. | siRNA reporter hit score | stable siRNA reporter change | miRNA reporter change | stable assay Renilla, run 1 (luminescence) | stable assay firefly, run 1 (luminescence) | outcome |
| --- | --- | --- | --- | --- | --- | --- | --- |
| Ir94f (Ionotropic receptor 94f) | 1 | – | – | – | 6406 | 3.79e5 | inactive |
| Cisd2 (CDGSH iron sulfur domain 2) | 1 | – | – | – | 6176 | 4.36e5 | inactive |
| CG33217 | 1 | – | – | – | 4752 | 5.21e5 | inactive |
| Desat2 (Desaturase 2) | 1 | – | – | – | 6251 | 3.23e5 | inactive |
| Prosalpha7 (Proteasome alpha7 subunit) | 1 | -3 | reporter ratio raised past the hit cutoff | – | 9279 | 2.64e5 | active |
| CG42613 | 1 | – | – | – | 3499 | 3.52e5 | inactive |
| CG42613 | 2 | – | – | – | 8745 | 5.59e5 | inactive |
| CG42613 | 3 | – | – | – | 10853 | 5.29e5 | inactive |
| Hsp70Bb + Hsp70Bbb | 1 | – | – | – | 5550 | 5.40e5 | inactive |
| CG42824 + CG42823 | 1 | – | – | – | 4307 | 4.27e5 | inactive |
| Est-P (Esterase P) | 1 | – | – | – | 6232 | 3.78e5 | inactive |
| Gk1 (Glycerol kinase 1) | 1 | – | – | – | 9006 | 3.10e5 | inactive |
| Gk1 (Glycerol kinase 1) | 2 | – | – | – | 6962 | 4.13e5 | inactive |
| CG30355 | 1 | – | – | – | 9317 | 6.50e5 | inactive |
| S-Lap2 (Sperm-Leucylaminopeptidase 2) | 1 | – | – | – | 7032 | 5.07e5 | inactive |
| Vps35 (Vacuolar protein sorting 35) | 1 | – | – | – | 7313 | 1.13e6 | inactive |
| eIF3h (eukaryotic translation initiation factor 3 subunit h) | 1 | – | – | – | 20799 | 6.65e5 | inactive |
| CG13033 | 1 | – | – | – | 7240 | 3.90e5 | inactive |
| Lip4 (Lipase 4) | 1 | – | – | – | 7751 | 4.06e5 | inactive |
| Lime (Linking immunity and metabolism) | 1 | – | – | – | 6540 | 4.87e5 | inactive |
| Surf6 (Surfeit 6) | 1 | – | – | – | 11105 | 3.58e5 | inactive |
| Gr28a (Gustatory receptor 28a) | 1 | – | – | – | 7272 | 3.43e5 | inactive |
| CNBP (CCHC-type zinc finger nucleic acid binding protein) | 1 | – | – | – | 7656 | 6.09e5 | inactive |
| CNBP (CCHC-type zinc finger nucleic acid binding protein) | 2 | – | – | – | 7759 | 7.10e5 | inactive |
| CNBP (CCHC-type zinc finger nucleic acid binding protein) | 3 | – | – | – | 9885 | 5.30e5 | inactive |
| CNT1 (Concentrative nucleoside transporter 1) | 1 | – | – | – | 5896 | 2.69e5 | inactive |
| Set2 (SET domain containing 2) | 1 | – | – | – | 9467 | 5.59e5 | inactive |
| CG8149 | 1 | – | – | – | 5783 | 3.63e5 | inactive |
| CG31436 | 1 | 3 | – | – | 6614 | 3.55e5 | inactive |
| Sfp53D (Seminal fluid protein 53D) | 1 | – | – | – | 5716 | 4.54e5 | inactive |
| CG13869 + CG11099 | 1 | – | – | – | 7015 | 3.71e5 | inactive |
| Saf6 (SAGA factor-like TAF6) | 1 | – | – | – | 14823 | 4.04e5 | inactive |
| bi (bifid) | 1 | – | – | – | 5138 | 4.36e5 | inactive |
| CG42586 + CG31775 | 1 | – | – | – | 2312 | 2.27e5 | inactive |
| CG14419 | 1 | – | – | – | 6258 | 3.68e5 | inactive |
| CG8272 | 1 | – | – | – | 7070 | 4.25e5 | inactive |
| CG8617 | 1 | – | – | – | 6052 | 3.52e5 | inactive |
| CG31415 | 1 | – | – | – | 4184 | 3.45e5 | inactive |
| CG5953 | 1 | – | – | – | 5551 | 4.82e5 | inactive |
| CG5953 | 2 | – | – | – | 7626 | 2.78e5 | inactive |
| HP4 (Heterochromatin protein 4) | 1 | – | – | – | 7888 | 4.80e5 | inactive |
| His2B:CG33870 + His2B:CG33868 + His2B:CG33882 + 21 more | 1 | – | – | – | 6847 | 5.38e5 | inactive |
